According to PubChem BioAssay AID493014 (National Center for Advancing Translational Sciences (NCATS), 2011):
The other results are listed elsewhere or left out. Further columns of the screen follow, without active or inactive calls. Most of these compounds were active or inconclusive in the main read-out, so they are no random draw. Potencies come from curve fits of mixed quality, noted in brackets.

Test: qHTS Assay to Find Inhibitors of Chronic Active B-Cell Receptor Signaling
Conditions: ABC-DLBCL IkBa-CBG/CBR reporter, luminescence ratio (green luciferase fused to IkBa over red control in TMD8 lymphoma cells), 4 h
Outline: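 TMD8 ABC-DLBCL cells carrying doxycycline-inducible green luciferase fused to IkappaBalpha plus unfused red luciferase were exposed to compounds (up to 46 uM) for 4 hrs at 37C. Activity came from the overlap-corrected green/red luminescence ratio.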

[1] = measured here: CBR red luminescence, cell number
[2] = measured here: IkBa-CBG green luminescence

Structure (SMILES) | AC50 [1] | AC50 [2]
C/C(=C\C(=O)O)C12CC3CC(CC(C3)C1)C2 | 25.9 µM [falling, single point] | –
Cn1cccc1C(=O)NC(=O)CSc1cccc[n+]1[O-] | – | 25.1 µM [falling, single point]
Cn1c(=N)n(CC(=O)c2ccc(Cl)c(Cl)c2)c2ccccc21 | 35.5 µM [falling, partial curve, poor fit] | –
CSCCC(NC(=O)c1cccc(S(=O)(=O)N2CCOCC2)c1)C(=O)Nc1ccc(F)cc1 (configuration not stated) | 0.366 µM [falling, full curve, poor fit] | –
Cc1cccc(Nc2c([N+](=O)[O-])cc(C(=O)N3CC(=O)Nc4ccccc43)cc2[N+](=O)[O-])c1 | 22.4 µM [falling, partial curve, poor fit] | –
Cc1ccc2nc(Nc3ccccc3)c(/C=N/O)c(=O)n2c1 | 13 µM [rising, partial curve, poor fit] | –
CC1=C(C(=O)OC(C)C)C(c2ccc(F)cc2)NC(=O)N1 (configuration not stated) | 20.6 µM [falling, single point] | 18.4 µM [rising, partial curve, poor fit]
Cc1c(C)[n+](=O)c2c(n1[O-])C(Br)CCC2Br (configuration not stated) | 31.6 µM [rising, single point] | –
COc1ccccc1C(=O)COC(=O)Cc1c[nH]c2ccccc12 | 23.1 µM [falling, partial curve, poor fit] | –
O=C(C[n+]1cc(-c2ccc(Cl)cc2)n2c1CCC2)Nc1nc(-c2ccccc2)cs1 | 15.8 µM [falling, partial curve, poor fit] | –
Cc1c(C(=O)NC2CC2)oc2ccccc12 | 29.1 µM [rising, single point] | –
O=C(NCC(=O)N(Cc1cccs1)C(C(=O)NC1CCCCC1)c1cccnc1)c1ccco1 (configuration not stated) | 0.82 µM [rising, full curve, poor fit] | –
Cc1nnc(NC(=O)C(C)Sc2nnc(-c3ccco3)n2C(C)C)s1 (configuration not stated) | 10 µM [falling, partial curve] | –
CC(=NCCc1c(C)[nH]c2ccc(OC(F)(F)F)cc12)C1=C(O)CC(c2ccccc2)CC1=O (configuration not stated) | 2.82 µM [rising, full curve, poor fit] | –
Cc1ccc2c(c1)Oc1ccc([N+](=O)[O-])cc1C(=O)N2 | 35.5 µM [falling, partial curve, poor fit] | –
COc1ccc(N(C)S(=O)(=O)c2cccc(C(=O)Nc3cc(OC)ccc3OC)c2)cc1 | 2.82 µM [rising, partial curve, poor fit] | –
Cc1ccc(-n2nc(C)c(/C=N/NC(=O)c3cccs3)c2Cl)cc1 | 16.4 µM [rising, single point] | –
Cn1cc([N+](=O)[O-])c(C(=O)Nc2sc3c(c2C#N)CCC3)n1 | 3.98 µM [falling, full curve] | –
CC(=O)N1CCOc2ccc(S(=O)(=O)N(C)c3ccc(C)cc3)cc21 | 2.82 µM [falling, full curve, poor fit] | –
Cc1ccc(CN2C(=O)CSC2c2ccc(F)cc2)cc1 (configuration not stated) | 14.1 µM [rising, single point] | –

Two records picked at random from the list so far, as already listed:
Structure (SMILES) | AC50 [1] | AC50 [2]
Cn1cc([N+](=O)[O-])c(C(=O)Nc2sc3c(c2C#N)CCC3)n1 | 3.98 µM [falling, full curve] | –
CSCCC(NC(=O)c1cccc(S(=O)(=O)N2CCOCC2)c1)C(=O)Nc1ccc(F)cc1 (configuration not stated) | 0.366 µM [falling, full curve, poor fit] | –

Further entries

Structure (SMILES) | AC50 [1] | AC50 [2]
COC(=O)C(C)n1cnc2c(nnn2-c2cccc(Cl)c2)c1=O (configuration not stated) | 7.31 µM [rising, partial curve] | –
CC(C)NC(=O)c1cc(-c2ccco2)on1 | 35.5 µM [falling, single point] | –
COc1ccc(NCc2nnc(SCC#N)n2-c2ccccc2OC)cc1 | 2 µM [falling, full curve, poor fit] | –
O=C(CCn1cccc1)Nc1ccc(OC(F)(F)F)cc1 | 0.794 µM [rising, full curve, poor fit] | –
CCOC(=O)C1CCN(c2nc3cc(OC)ccc3cc2C#N)CC1 | 3.66 µM [falling, single point] | –
COc1ccccc1OCC(=O)Nc1ccc(N2CCCCC2)cc1 | 14.1 µM [rising, partial curve, poor fit] | –
OCCc1ccc(-c2ccc(Cl)cc2)o1 | 9.2 µM [rising, partial curve] | –
CCc1ccc2oc(-c3cccc(N)c3)nc2c1 | 12.6 µM [falling, partial curve] | –
Cc1cccc(C(=O)Nc2ncc(CN3CCOCC3)s2)c1 | 14.6 µM [falling, partial curve, poor fit] | –
OC[C@H]1O[C@@H](n2cnc3c(NC4CCCC4)nc(Cl)nc32)[C@H](O)[C@@H]1O | 2.91 µM [rising, full curve] | 2.06 µM [falling, full curve]
CCOc1ccc(NC(=O)CSc2nc(N)c(-c3ccccc3)c(=O)[nH]2)cc1 | 8.91 µM [rising, partial curve, poor fit] | –
Cc1ccc(S(=O)(=O)Oc2ccc(/C=C(/NC(=O)c3ccccc3)C(=O)NCCCC(=O)O)cc2)cc1 | 0.708 µM [rising, full curve, poor fit] | –
COCCNc1ccc(-c2n[nH]c(=O)c3ccccc23)cc1[N+](=O)[O-] | 25.1 µM [rising, single point] | –
COc1ccc(-n2c(O)c(/C=N/NS(=O)(=O)c3cc(C)ccc3C)c3ccccc3c2=O)cc1OC | 4.61 µM [falling, single point] | –
O=C(Nc1ccc(S(=O)(=O)N2CCCC2)cc1)c1ccc([N+](=O)[O-])o1 | 8.2 µM [falling, single point] | –
Cc1cc(C)cc(-n2ncc3c2CCCC3NC(=O)c2cc(C)[nH]n2)c1 (configuration not stated) | 22.4 µM [falling, single point] | –
O=[N+]([O-])c1cccc(-c2nc(Oc3ccc(Cl)cc3)c3ccccc3n2)c1 | 9.2 µM [falling, partial curve] | –
Cn1ccnc1SCC(=O)Nc1ccccc1 | 3.66 µM [rising, partial curve, poor fit] | –
O=C(NCCc1ccccn1)c1nc(Cn2cc(Br)cn2)no1 | 12.6 µM [rising, partial curve, poor fit] | –
Cc1nn(-c2ccccc2)c(Cl)c1/C=C/C(=O)c1ccccc1 | 11.6 µM [falling, single point] | –
